Test results: article PMC12516131

Columns and labels:
[1] = biological target: T1, MAP65-3–mCherry–8×His (Arabidopsis thaliana) (UniProt Q9FHM4); assay: TIRF microscopy microtubule binding assay; 20 nM eGFP–POK2 fragment mixed with MAP65-3–mCherry (0.1–20 nM) in the reaction buffer on unlabelled stabilised microtubules (IRM); ionic strength 170 mM and 70 mM; dual-colour TIRF; both purified
T1 sequence: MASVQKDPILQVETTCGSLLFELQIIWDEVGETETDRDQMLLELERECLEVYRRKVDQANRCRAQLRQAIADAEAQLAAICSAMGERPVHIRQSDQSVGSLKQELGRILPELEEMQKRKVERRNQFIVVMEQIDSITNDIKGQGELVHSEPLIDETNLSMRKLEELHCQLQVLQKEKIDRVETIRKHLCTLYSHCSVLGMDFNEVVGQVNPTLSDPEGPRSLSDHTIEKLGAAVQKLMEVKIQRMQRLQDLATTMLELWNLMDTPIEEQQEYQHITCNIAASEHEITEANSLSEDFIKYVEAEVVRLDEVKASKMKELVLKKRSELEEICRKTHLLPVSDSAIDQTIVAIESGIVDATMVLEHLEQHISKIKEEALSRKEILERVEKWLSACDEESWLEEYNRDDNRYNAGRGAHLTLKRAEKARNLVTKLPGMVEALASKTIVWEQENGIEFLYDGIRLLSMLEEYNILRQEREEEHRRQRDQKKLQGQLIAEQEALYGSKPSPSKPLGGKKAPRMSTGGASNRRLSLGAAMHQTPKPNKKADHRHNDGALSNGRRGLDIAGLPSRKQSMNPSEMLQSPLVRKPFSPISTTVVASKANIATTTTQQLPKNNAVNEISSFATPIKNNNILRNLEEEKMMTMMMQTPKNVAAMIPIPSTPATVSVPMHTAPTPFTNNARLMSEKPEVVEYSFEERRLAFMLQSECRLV

[2] = biological target: T1, MAP65-3–mCherry–8×His (Arabidopsis thaliana); assay: single-molecule dual-colour TIRF microscopy (co-diffusion on microtubules); 1 nM eGFP–POK2^2083–2771 with 0.5 nM MAP65-3–mCherry on unlabelled stabilised microtubules; ionic strength 70–190 mM set with KCl; both purified

| Substance | binding [1] | binding [2] |
| --- | --- | --- |
| eGFP–POK2^2083–2440 (Arabidopsis thaliana) (domain or fragment) | no binding (tested: 20 nM) | – |
| eGFP–POK2^2083–2771–8×His (Arabidopsis thaliana) (domain or fragment) | binds | binds |
| eGFP–POK2^2510–2677 (Arabidopsis thaliana) (domain or fragment) | no binding (tested: 20 nM) | – |
| eGFP–POK2^2510–2771 (Arabidopsis thaliana) (domain or fragment) | binds | – |

Results are given in words; binding and its absence hold for the method and conditions named. A result given as binding can be weak or reduced; the word gives no strength. Where a sequence is shown, tags or fusion partners need not be part of it.
